# Where two headings read alike, the source gives them in different places. These are yes or no findings as the source states them, for the method shown. In cells and extracts the contact can be indirect. A yes stands for co-enrichment or nearness to the bait. Other partners may have been found. For some of these results: Tags and fused reporters may be left off the sequences shown.
# Sequences of proteins named here, by UniProt entry; tags and fusion partners are left off.
# UniProt Q5S007: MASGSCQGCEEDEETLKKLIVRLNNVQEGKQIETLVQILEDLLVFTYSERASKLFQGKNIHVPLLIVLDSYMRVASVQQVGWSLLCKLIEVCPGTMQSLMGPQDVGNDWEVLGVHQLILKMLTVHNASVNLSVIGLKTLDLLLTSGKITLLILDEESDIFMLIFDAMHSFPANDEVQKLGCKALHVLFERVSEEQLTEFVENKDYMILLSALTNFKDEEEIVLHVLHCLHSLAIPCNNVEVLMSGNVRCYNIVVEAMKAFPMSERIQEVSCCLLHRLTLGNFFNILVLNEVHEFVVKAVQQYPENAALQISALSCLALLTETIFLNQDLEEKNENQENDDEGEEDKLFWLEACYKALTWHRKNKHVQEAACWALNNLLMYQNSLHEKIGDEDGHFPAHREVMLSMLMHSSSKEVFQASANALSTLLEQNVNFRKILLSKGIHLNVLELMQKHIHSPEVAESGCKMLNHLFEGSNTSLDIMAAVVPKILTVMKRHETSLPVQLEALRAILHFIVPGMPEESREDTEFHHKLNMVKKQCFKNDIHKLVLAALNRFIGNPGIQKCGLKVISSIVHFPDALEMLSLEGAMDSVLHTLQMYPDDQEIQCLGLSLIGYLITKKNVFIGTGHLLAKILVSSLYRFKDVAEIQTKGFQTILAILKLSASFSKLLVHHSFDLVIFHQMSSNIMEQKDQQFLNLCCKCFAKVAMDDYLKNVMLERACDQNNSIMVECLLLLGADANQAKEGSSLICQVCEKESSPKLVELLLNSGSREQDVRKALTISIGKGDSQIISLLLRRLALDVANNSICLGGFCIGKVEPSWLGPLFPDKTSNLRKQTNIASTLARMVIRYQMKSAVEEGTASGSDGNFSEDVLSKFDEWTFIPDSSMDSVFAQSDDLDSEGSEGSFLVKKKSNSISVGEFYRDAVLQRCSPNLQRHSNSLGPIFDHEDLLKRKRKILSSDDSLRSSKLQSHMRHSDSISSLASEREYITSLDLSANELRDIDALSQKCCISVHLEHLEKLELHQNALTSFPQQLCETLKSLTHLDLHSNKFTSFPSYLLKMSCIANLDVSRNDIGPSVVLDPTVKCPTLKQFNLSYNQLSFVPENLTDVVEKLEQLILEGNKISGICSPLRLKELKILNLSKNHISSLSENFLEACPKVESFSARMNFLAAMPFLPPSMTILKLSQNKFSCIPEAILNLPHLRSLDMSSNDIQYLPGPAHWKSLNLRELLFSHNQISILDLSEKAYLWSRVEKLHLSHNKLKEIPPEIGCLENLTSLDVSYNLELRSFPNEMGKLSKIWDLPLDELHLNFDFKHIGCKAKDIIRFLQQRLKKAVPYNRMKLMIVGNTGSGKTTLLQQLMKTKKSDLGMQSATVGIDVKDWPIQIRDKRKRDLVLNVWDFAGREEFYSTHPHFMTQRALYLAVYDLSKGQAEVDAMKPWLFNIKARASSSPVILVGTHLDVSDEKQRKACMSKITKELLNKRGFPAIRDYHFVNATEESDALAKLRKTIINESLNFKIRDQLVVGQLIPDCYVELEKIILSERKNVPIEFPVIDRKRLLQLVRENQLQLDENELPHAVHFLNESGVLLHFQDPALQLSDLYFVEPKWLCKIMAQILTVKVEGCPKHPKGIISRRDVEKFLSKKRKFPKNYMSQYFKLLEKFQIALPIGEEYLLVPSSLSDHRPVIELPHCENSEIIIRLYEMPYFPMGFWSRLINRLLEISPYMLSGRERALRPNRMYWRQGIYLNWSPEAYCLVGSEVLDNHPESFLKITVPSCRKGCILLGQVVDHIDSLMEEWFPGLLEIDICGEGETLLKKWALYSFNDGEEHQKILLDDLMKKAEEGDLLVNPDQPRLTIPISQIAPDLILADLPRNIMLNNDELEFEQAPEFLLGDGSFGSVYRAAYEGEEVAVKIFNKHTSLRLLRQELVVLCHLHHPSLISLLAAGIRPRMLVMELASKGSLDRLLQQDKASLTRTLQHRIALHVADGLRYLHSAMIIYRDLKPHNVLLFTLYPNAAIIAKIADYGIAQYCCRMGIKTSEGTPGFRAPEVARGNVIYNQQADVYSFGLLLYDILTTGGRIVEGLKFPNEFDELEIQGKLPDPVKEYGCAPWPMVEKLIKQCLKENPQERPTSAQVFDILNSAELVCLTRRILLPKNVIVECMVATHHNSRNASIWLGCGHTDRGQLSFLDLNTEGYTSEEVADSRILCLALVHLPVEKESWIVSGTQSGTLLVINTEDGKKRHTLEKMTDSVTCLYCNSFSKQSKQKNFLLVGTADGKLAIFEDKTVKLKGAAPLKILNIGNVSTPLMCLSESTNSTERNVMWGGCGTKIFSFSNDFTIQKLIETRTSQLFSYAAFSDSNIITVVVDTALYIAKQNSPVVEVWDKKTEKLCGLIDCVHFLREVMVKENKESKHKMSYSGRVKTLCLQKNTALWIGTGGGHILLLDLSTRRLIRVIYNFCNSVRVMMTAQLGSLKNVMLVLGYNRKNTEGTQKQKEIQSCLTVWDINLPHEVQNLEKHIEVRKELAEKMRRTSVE
# UniProt Q7Z3U7: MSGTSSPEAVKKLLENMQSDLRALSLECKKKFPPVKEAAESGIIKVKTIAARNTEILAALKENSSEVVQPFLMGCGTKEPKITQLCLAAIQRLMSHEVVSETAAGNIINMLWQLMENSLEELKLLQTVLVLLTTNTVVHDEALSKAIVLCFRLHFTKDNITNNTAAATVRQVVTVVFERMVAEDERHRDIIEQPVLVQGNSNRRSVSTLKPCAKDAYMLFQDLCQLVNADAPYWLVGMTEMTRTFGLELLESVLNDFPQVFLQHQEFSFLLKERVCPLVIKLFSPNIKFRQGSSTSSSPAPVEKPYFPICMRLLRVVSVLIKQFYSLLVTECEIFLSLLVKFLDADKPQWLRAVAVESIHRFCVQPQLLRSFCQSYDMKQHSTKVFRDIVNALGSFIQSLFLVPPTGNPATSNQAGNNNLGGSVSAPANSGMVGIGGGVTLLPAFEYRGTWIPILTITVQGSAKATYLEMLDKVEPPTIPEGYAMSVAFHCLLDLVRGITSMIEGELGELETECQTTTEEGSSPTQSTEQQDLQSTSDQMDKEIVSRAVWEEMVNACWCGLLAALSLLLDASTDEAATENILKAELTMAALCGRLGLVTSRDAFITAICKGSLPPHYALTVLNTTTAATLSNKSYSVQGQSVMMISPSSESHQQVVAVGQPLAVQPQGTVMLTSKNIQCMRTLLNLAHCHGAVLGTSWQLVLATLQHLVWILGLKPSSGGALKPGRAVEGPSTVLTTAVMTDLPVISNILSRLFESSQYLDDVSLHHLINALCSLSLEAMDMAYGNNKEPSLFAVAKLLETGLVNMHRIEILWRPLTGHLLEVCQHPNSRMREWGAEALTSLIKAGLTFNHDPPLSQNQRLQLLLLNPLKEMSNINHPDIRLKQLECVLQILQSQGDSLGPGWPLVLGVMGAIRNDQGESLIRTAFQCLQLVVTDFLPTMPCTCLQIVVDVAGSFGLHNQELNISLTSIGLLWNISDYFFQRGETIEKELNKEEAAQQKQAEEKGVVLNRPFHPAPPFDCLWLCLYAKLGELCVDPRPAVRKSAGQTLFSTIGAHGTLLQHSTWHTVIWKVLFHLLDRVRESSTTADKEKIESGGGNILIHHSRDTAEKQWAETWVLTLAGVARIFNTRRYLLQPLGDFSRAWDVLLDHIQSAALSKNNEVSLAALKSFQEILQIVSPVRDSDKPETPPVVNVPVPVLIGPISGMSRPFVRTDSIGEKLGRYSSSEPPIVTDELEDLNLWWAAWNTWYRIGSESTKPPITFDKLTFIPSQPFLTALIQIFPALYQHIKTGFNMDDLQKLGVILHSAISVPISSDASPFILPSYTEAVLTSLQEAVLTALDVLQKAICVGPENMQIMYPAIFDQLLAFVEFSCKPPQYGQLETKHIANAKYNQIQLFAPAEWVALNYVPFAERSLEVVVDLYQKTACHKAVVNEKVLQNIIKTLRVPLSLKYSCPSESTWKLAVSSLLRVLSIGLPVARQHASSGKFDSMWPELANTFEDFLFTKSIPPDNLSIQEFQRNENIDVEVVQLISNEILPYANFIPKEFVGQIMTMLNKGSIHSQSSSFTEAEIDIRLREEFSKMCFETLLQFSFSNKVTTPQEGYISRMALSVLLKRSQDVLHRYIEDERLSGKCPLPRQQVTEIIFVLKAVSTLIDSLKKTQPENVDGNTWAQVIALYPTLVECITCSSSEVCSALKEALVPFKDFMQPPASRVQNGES
# UniProt O15169: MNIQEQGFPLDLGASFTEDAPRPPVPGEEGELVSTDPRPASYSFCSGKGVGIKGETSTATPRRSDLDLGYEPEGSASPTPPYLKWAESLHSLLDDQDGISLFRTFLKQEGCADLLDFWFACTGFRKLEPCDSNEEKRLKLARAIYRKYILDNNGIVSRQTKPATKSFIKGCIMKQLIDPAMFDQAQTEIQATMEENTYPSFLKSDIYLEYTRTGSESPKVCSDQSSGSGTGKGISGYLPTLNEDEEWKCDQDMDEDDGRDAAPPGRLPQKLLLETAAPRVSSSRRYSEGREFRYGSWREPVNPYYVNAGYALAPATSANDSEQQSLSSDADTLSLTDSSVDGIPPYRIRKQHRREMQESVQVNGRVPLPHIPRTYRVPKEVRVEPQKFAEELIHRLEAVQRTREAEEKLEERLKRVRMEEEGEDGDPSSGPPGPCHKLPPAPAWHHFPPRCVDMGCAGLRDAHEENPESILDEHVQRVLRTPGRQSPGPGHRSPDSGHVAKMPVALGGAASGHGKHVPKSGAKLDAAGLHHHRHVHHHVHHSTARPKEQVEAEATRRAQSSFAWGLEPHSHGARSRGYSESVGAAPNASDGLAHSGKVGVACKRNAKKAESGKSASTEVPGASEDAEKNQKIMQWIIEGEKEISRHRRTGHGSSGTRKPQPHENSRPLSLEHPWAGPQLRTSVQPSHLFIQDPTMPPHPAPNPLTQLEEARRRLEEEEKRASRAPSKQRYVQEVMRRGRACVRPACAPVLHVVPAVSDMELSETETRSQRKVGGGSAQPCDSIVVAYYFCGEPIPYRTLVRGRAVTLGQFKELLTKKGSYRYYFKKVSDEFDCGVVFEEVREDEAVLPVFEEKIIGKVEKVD
# UniProt Q96RS0: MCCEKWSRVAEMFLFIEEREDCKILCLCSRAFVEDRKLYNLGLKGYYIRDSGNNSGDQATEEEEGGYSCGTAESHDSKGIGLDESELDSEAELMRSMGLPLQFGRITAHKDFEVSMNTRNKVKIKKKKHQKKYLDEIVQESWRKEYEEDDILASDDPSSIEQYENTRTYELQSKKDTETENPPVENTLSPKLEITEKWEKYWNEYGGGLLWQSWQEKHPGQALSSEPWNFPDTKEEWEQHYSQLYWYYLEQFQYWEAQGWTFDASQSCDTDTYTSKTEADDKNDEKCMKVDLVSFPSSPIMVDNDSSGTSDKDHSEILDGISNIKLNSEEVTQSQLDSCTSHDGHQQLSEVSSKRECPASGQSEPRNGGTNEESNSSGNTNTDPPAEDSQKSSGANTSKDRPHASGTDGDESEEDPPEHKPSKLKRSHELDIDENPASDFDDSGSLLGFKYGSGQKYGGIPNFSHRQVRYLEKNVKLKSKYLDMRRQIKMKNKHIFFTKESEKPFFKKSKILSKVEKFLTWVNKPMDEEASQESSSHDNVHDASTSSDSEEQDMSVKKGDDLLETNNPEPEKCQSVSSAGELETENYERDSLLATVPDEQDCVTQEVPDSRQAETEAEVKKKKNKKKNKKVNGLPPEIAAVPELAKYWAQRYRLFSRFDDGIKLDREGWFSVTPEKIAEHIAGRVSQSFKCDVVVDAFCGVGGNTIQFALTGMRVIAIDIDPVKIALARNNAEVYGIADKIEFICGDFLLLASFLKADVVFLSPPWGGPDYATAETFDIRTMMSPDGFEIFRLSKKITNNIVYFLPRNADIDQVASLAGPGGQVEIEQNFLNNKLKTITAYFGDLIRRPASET
# B1: DVL1 (protein, UniProt O14640 1-695)
# chain: MAETKIIYHMDEEETPYLVKLPVAPERVTLADFKNVLSNRPVHAYKFFFKSMDQDFGVVKEEIFDDNAKLPCFNGRVVSWLVLAEGAHSDAGSQGTDSHTDLPPPLERTGGIGDSRPPSFHPNVASSRDGMDNETGTESMVSHRRERARRRNREEAARTNGHPRGDRRRDVGLPPDSASTALSSELESSSFVDSDEDGSTSRLSSSTEQSTSSRLIRKHKRRRRKQRLRQADRASSFSSITDSTMSLNIVTVTLNMERHHFLGISIVGQSNDRGDGGIYIGSIMKGGAVAADGRIEPGDMLLQVNDVNFENMSNDDAVRVLREIVSQTGPISLTVAKCWDPTPRSYFTVPRADPVRPIDPAAWLSHTAALTGALPRYGTSPCSSAVTRTSSSSLTSSVPGAPQLEEAPLTVKSDMSAVVRVMQLPDSGLEIRDRMWLKITIANAVIGADVVDWLYTHVEGFKERREARKYASSLLKHGFLRHTVNKITFSEQCYYVFGDLCSNLATLNLNSGSSGTSDQDTLAPLPHPAAPWPLGQGYPYQYPGPPPCFPPAYQDPGFSYGSGSTGSQQSEGSKSSGSTRSSRRAPGREKERRAAGAGGSGSESDHTAPSGVGSSWRERPAGQLSRGSSPRSQASATAPGLPPPHPTTKAYTVVGGPPGGPPVRELAAVPPELTGSRQSFQKAMGNPCEFFVDIM
# B2: DCUN1D4 (protein, UniProt Q92564 1-292)
# chain: MHSDAAAVNFQLNSHLSTLANIHKIYHTLNKLNLTEDIGQDDHQTGSLRSCSSSDCFNKVMPPRKKRRPASGDDLSAKKSRHDSMYRKYDSTRIKTEEEAFSSKRCLEWFYEYAGTDDVVGPEGMEKFCEDIGVEPENVVMLVLAWKLDAQNMGYFTLQEWLKGMTSLQCDTTEKLRNTLDYLRSFLNDSTNFKLIYRYAFDFAREKDQRSLDINTAKCMLGLLLGKIWPLFPVFHQFLEQSKYKVINKDQWCNVLEFSRTINLDLSNYDEDGAWPVLLDEFVEWYKDKQMS
# B3: C-Jun-amino-terminal kinase-interacting protein 4 (protein, UniProt O60271 1-1321)
# chain: MELEDGVVYQEEPGGSGAVMSERVSGLAGSIYREFERLIGRYDEEVVKELMPLVVAVLENLDSVFAQDQEHQVELELLRDDNEQLITQYEREKALRKHAEEKFIEFEDSQEQEKKDLQTRVESLESQTRQLELKAKNYADQISRLEEREAELKKEYNALHQRHTEMIHNYMEHLERTKLHQLSGSDQLESTAHSRIRKERPISLGIFPLPAGDGLLTPDAQKGGETPGSEQWKFQELSQPRSHTSLKVSNSPEPQKAVEQEDELSDVSQGGSKATTPASTANSDVATIPTDTPLKEENEGFVKVTDAPNKSEISKHIEVQVAQETRNVSTGSAENEEKSEVQAIIESTPELDMDKDLSGYKGSSTPTKGIENKAFDRNTESLFEELSSAGSGLIGDVDEGADLLGMGREVENLILENTQLLETKNALNIVKNDLIAKVDELTCEKDVLQGELEAVKQAKLKLEEKNRELEEELRKARAEAEDARQKAKDDDDSDIPTAQRKRFTRVEMARVLMERNQYKERLMELQEAVRWTEMIRASRENPAMQEKKRSSIWQFFSRLFSSSSNTTKKPEPPVNLKYNAPTSHVTPSVKKRSSTLSQLPGDKSKAFDFLSEETEASLASRREQKREQYRQVKAHVQKEDGRVQAFGWSLPQKYKQVTNGQGENKMKNLPVPVYLRPLDEKDTSMKLWCAVGVNLSGGKTRDGGSVVGASVFYKDVAGLDTEGSKQRSASQSSLDKLDQELKEQQKELKNQEELSSLVWICTSTHSATKVLIIDAVQPGNILDSFTVCNSHVLCIASVPGARETDYPAGEDLSESGQVDKASLCGSMTSNSSAETDSLLGGITVVGCSAEGVTGAATSPSTNGASPVMDKPPEMEAENSEVDENVPTAEEATEATEGNAGSAEDTVDISQTGVYTEHVFTDPLGVQIPEDLSPVYQSSNDSDAYKDQISVLPNEQDLVREEAQKMSSLLPTMWLGAQNGCLYVHSSVAQWRKCLHSIKLKDSILSIVHVKGIVLVALADGTLAIFHRGVDGQWDLSNYHLLDLGRPHHSIRCMTVVHDKVWCGYRNKIYVVQPKAMKIEKSFDAHPRKESQVRQLAWVGDGVWVSIRLDSTLRLYHAHTYQHLQDVDIEPYVSKMLGTGKLGFSFVRITALMVSCNRLWVGTGNGVIISIPLTETNKTSGVPGNRPGSVIRVYGDENSDKVTPGTFIPYCSMAHAQLCFHGHRDAVKFFVAVPGQVISPQSSSSGTDLTGDKAGPSAQEPGSQTPLKSMLVISGGEGYIDFRMGDEGGESELLGEDLPLEPSVTKAERSHLIVWQVMYGNE
# B4: Lamina-associated polypeptide 2, isoforms beta/gamma; Thymopoietin; Thymopentin (protein, UniProt P42167 1-454)
# chain: MPEFLEDPSVLTKDKLKSELVANNVTLPAGEQRKDVYVQLYLQHLTARNRPPLPAGTNSKGPPDFSSDEEREPTPVLGSGAAAAGRSRAAVGRKATKKTDKPRQEDKDDLDVTELTNEDLLDQLVKYGVNPGPIVGTTRKLYEKKLLKLREQGTESRSSTPLPTISSSAENTRQNGSNDSDRYSDNEEDSKIELKLEKREPLKGRAKTPVTLKQRRVEHNQSYSQAGITETEWTSGSSKGGPLQALTRESTRGSRRTPRKRVETSEHFRIDGPVISESTPIAETIMASSNESLVVNRVTGNFKHASPILPITEFSDIPRRAPKKPLTRAEVGEKTEERRVERDILKEMFPYEASTPTGISASCRRPIKGAAGRPLELSDFRMEESFSSKYVPKYVPLADVKSEKTKKGRSIPVWIKILLFVVVAVFLFLVYQAMETNQVNPFSNFLHVDPRKSN
# B5: Extended synaptotagmin-1 (protein, UniProt Q9BSJ8 1-1104)
# chain: MERSPGEGPSPSPMDQPSAPSDPTDQPPAAHAKPDPGSGGQPAGPGAAGEALAVLTSFGRRLLVLIPVYLAGAVGLSVGFVLFGLALYLGWRRVRDEKERSLRAARQLLDDEEQLTAKTLYMSHRELPAWVSFPDVEKAEWLNKIVAQVWPFLGQYMEKLLAETVAPAVRGSNPHLQTFTFTRVELGEKPLRIIGVKVHPGQRKEQILLDLNISYVGDVQIDVEVKKYFCKAGVKGMQLHGVLRVILEPLIGDLPFVGAVSMFFIRRPTLDINWTGMTNLLDIPGLSSLSDTMIMDSIAAFLVLPNRLLVPLVPDLQDVAQLRSPLPRGIIRIHLLAARGLSSKDKYVKGLIEGKSDPYALVRLGTQTFCSRVIDEELNPQWGETYEVMVHEVPGQEIEVEVFDKDPDKDDFLGRMKLDVGKVLQASVLDDWFPLQGGQGQVHLRLEWLSLLSDAEKLEQVLQWNWGVSSRPDPPSAAILVVYLDRAQDLPLKKGNKEPNPMVQLSIQDVTQESKAVYSTNCPVWEEAFRFFLQDPQSQELDVQVKDDSRALTLGALTLPLARLLTAPELILDQWFQLSSSGPNSRLYMKLVMRILYLDSSEICFPTVPGCPGAWDVDSENPQRGSSVDAPPRPCHTTPDSQFGTEHVLRIHVLEAQDLIAKDRFLGGLVKGKSDPYVKLKLAGRSFRSHVVREDLNPRWNEVFEVIVTSVPGQELEVEVFDKDLDKDDFLGRCKVRLTTVLNSGFLDEWLTLEDVPSGRLHLRLERLTPRPTAAELEEVLQVNSLIQTQKSAELAAALLSIYMERAEDLPLRKGTKHLSPYATLTVGDSSHKTKTISQTSAPVWDESASFLIRKPHTESLELQVRGEGTGVLGSLSLPLSELLVADQLCLDRWFTLSSGQGQVLLRAQLGILVSQHSGVEAHSHSYSHSSSSLSEEPELSGGPPHITSSAPELRQRLTHVDSPLEAPAGPLGQVKLTLWYYSEERKLVSIVHGCRSLRQNGRDPPDPYVSLLLLPDKNRGTKRRTSQKKRTLSPEFNERFEWELPLDEAQRRKLDVSVKSNSSFMSRERELLGKVQLDLAETDLSQGVARWYDLMDNKDKGSS
# Tests used:
# [1] = molecular target: LRRK2 with an N-terminal BioID tag (BioID1-LRRK2, BioID2-LRRK2 or miniTurbo-LRRK2; pooled 'BioID set') (human) (UniProt Q5S007); assay: proximity labelling; BioID1-, BioID2- or miniTurbo-LRRK2 transiently expressed in HEK293T against the tag-only control; 50 uM biotin (up to 16 h; miniTurbo 2 h after overnight starvation); Strep-Tactin enrichment, LC-MSMS; SAINTexpress and CRAPome filter, hits of the three tags unified ('BioID set')
# [2] = molecular target: LRRK2 with an N-terminal BioID tag (BioID1-LRRK2, BioID2-LRRK2 or miniTurbo-LRRK2; pooled 'BioID set') (human) (UniProt Q5S007); assay: as above; remark: listed apart in the source
# [3] = molecular target: miniTurbo-LRRK2 (human) (UniProt Q5S007); assay: proximity labelling; mT-LRRK2 co-expressed with HA-RAB29 against empty pcDNA3.0 vector; biotin labelling, Strep-Tactin enrichment, LC-MSMS, LFQ with FDR-controlled t test
Molecule,binding [1],also measured
MON2 (from UniProt Q7Z3U7 1-1717),binds,–
ANAPC5 (from UniProt Q9UJX4 1-755),binds,–
Kinesin-like protein KIF16B (from UniProt Q96L93 1-1317),binds,–
Neuron navigator 1 (from UniProt Q8NEY1 1-1877),binds,–
DVL2 (from UniProt O14641 1-736),binds,–
AXIN1 (from UniProt O15169 1-862),binds,–
Trimethylguanosine synthase (from UniProt Q96RS0 1-853) (enzyme),binds,–
Protein FAM193A (from UniProt P78312 1-1515),binds,–
B1,–,binding [2]: binds
B2,–,binding [2]: binds
B3,–,binding [3]: binds
B4,–,binding [3]: binds
B5,–,binding [3]: binds
